Data as given in article PMC9794026.
Results are given in words; binding and its absence hold for the method and conditions named.

Amino acid sequences for entries named in this document (tags omitted).
UniProt Q8Y565: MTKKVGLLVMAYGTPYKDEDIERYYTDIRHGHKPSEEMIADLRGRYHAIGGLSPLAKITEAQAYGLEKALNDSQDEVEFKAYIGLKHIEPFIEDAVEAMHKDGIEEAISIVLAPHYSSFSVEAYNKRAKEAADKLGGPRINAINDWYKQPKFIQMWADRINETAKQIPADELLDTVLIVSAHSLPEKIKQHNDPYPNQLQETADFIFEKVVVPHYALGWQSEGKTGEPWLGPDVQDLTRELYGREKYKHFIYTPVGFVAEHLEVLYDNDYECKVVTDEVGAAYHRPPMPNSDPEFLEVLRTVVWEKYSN

Target: Coproporphyrin ferrochelatase from Listeria monocytogenes, wild-type (Listeria monocytogenes) (UniProt Q8Y565)
Test: SEC-MALS; HPLC (Shimadzu prominence LC20)-SEC (Superdex 200 10/300)-MALS (Wyatt Heleos Dawn8+); samples checked for purity and monomeric state; both purified

Question: For “Coproporphyrin ferrochelatase from Listeria monocytogenes, wild-type (from UniProt Q8Y565 1-309) (enzyme)”, which binding is on record?
Answer: no binding
